Results: the supplement of paper PMC7877785
± gives the uncertainty stated by the source. Many of these values have a large error.

Assay: self-splicing fitness, log relative to wild type (ln ratio); higher = more splicing; Tetrahymena group I intron in knt gene, E. coli kanamycin selection, DiMSum; sequences stand for … in CUCUCU…GGAGGGAAAAGUUAUCAGGCAUGCACCUGGUAGCUAGUCUUUAAACCAAUAGAUUGCAUCGGUUUAAAAGGCAAGACCGUCAAAUUGCGGGAAAGGGGUCAACAGCCGUUCAGUACCAAGUCUCAGGGGAAACUUUGAGAUGGCCUUGCAAAGGGUAUGGUAAUAAGCUGACGGACAUGGUCCUAACCACGCAGCCAAGUCCUAAGUCAACAGAUCUUCUGUUGAUAUGGAUGCAGUUCACAGACUAAAUGUCGGUCGGGGAAGAUGUAUUCUUCUCAUAAGAUAUAGUCGGACCUCUCCUUAAUGGGAGCUAGCGGAUGAAGUGAUGCAACACUGGAGCCGCUGGGAACUAAUUUGUAUGCGAAAGUAUAUUGAUUAGUUUUGGAGUACUCGUGGUCG
Outline: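 DiMSum derived fitness as the error-weighted combination of fold changes across replicates, kanamycin versus no kanamycin, normalised to wild type. E. coli BL21(DE3) held the library, which randomised all eight P1ex-region intron nucleotides within the knt kanamycin-resistance gene on pET-22b(+). Six replicate transformations grew overnight at 37°C or 30°C on LB agar with or without 25 μg/mL kanamycin, also containing 100 μg/mL carbenicillin, 50 μM IPTG and 0.2% rhamnose, and pooled colonies were amplicon-sequenced on an Illumina HiSeq 2500.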

| Sequence | self-splicing fitness (ln) (30 °C) | self-splicing fitness (ln) (37 °C) |
| --- | --- | --- |
| UUUCAGCAAUAUUACGCCAU | -4.23 ± 0.72 | -3.34 ± 0.52 |
| UUGUAGCAAUAUUACGGCCC | 0.255 ± 0.82 | – |
| CUAUAGCAAUAUUACGAGCC | -3.87 ± 0.52 | -2.82 ± 0.61 |
| GCAGAGCAAUAUUACGAACA | – | -2.84 ± 0.55 |
| CUAUAGCAAUAUUACGCAAA | -2.52 ± 0.57 | -2.41 ± 0.76 |
| CUGCAGCAAUAUUACGAAAC | -4.49 ± 1 | – |
| AUUGAGCAAUAUUACGGUGC | -2.94 ± 0.69 | -1.87 ± 0.64 |
| UCGGAGCAAUAUUACGCCGC | – | -2.76 ± 1.1 |
| CAAGAGCAAUAUUACGAACC | – | -1.78 ± 0.81 |
| CUAGAGCAAUAUUACGGUCC | -3.36 ± 0.61 | -2.44 ± 0.63 |
| AGCCAGCAAUAUUACGAAUG | -4.5 ± 0.51 | – |
| CGAGAGCAAUAUUACGACUA | – | -2.44 ± 0.77 |
| UCGGAGCAAUAUUACGAGCC | – | -1.51 ± 0.56 |
| ACCGAGCAAUAUUACGAAUA | -3.02 ± 0.32 | -2.41 ± 0.2 |
| CUGUAGCAAUAUUACGAAAC | – | -3.74 ± 1 |
| GCUAAGCAAUAUUACGAGGU | -2.03 ± 0.19 | -1.51 ± 0.15 |
| UGAGAGCAAUAUUACGCAGG | -4.58 ± 0.59 | – |
| GUUGAGCAAUAUUACGGAGG | -3.94 ± 0.73 | -1.36 ± 0.51 |
| UUGGAGCAAUAUUACGGGUC | – | -3.25 ± 0.53 |
| UUCGAGCAAUAUUACGCCGA | -2.65 ± 0.22 | -2.66 ± 0.33 |
| AUUUAGCAAUAUUACGCUCC | – | 0.658 ± 0.52 |
| AUUGAGCAAUAUUACGUGGG | -4.84 ± 0.58 | – |
| CGCGAGCAAUAUUACGUCAA | – | -2.31 ± 0.5 |
| UUUUAGCAAUAUUACGCUGC | -2.09 ± 0.82 | -1.74 ± 0.53 |

Rewritten comma-delimited: entries from further up.
Sequence,self-splicing fitness (ln) (30 °C),self-splicing fitness (ln) (37 °C)
UUGUAGCAAUAUUACGGCCC,0.255 ± 0.82,–
UCGGAGCAAUAUUACGCCGC,–,-2.76 ± 1.1
CGAGAGCAAUAUUACGACUA,–,-2.44 ± 0.77

(continued)

| Sequence | self-splicing fitness (ln) (30 °C) | self-splicing fitness (ln) (37 °C) |
| --- | --- | --- |
| AUCGAGCAAUAUUACGCACC | – | -2.08 ± 0.56 |
| AUUUAGCAAUAUUACGAGAC | – | -1.02 ± 0.55 |
| UAACAGCAAUAUUACGAGCC | -2.65 ± 0.24 | -2.24 ± 0.49 |
| CAUUAGCAAUAUUACGACGC | – | -0.833 ± 0.54 |
| CUAGAGCAAUAUUACGCUAC | – | -3.22 ± 0.52 |
| UGAGAGCAAUAUUACGGUCC | -3.09 ± 0.79 | – |
| CACGAGCAAUAUUACGCCCA | -1.81 ± 0.4 | -1.72 ± 0.28 |
| ACUCAGCAAUAUUACGAUUC | -1.63 ± 0.087 | -0.302 ± 0.1 |
| UAGAAGCAAUAUUACGGGCC | – | -1.9 ± 0.31 |
| UUUUAGCAAUAUUACGGCCC | -1.81 ± 0.68 | – |
| GGUGAGCAAUAUUACGCCCU | – | -1.75 ± 0.67 |
| GGCCAGCAAUAUUACGGACC | -3.07 ± 0.53 | -0.7 ± 0.69 |
| CAAUAGCAAUAUUACGUAAA | -2.68 ± 0.28 | -2.27 ± 0.4 |
| CUCAAGCAAUAUUACGACCC | – | -2.72 ± 1 |
| CGGGAGCAAUAUUACGUGUC | -3.27 ± 1.1 | -2.08 ± 1.1 |
| CCUCAGCAAUAUUACGCUCU | – | -2.9 ± 0.53 |
| UUCGAGCAAUAUUACGAAUA | -2.62 ± 0.56 | – |
| CCUUAGCAAUAUUACGCAAA | -4.38 ± 1 | – |
| CUACAGCAAUAUUACGUCUA | -3.21 ± 0.24 | -3.04 ± 0.33 |
| GAAGAGCAAUAUUACGAAAA | -3.19 ± 1.2 | -2.25 ± 0.79 |
| UUAUAGCAAUAUUACGCCCU | -1.32 ± 1.4 | -1.13 ± 1.2 |
| CCCAAGCAAUAUUACGCCGA | – | -3.7 ± 0.59 |
| GAGGAGCAAUAUUACGCCCG | -0.699 ± 0.93 | – |
| UAGGAGCAAUAUUACGUCGC | – | -2.48 ± 1.1 |

Reformatted with bars between the fields: entries from further up.
Sequence | self-splicing fitness (ln) (30 °C) | self-splicing fitness (ln) (37 °C)
GGUGAGCAAUAUUACGCCCU | – | -1.75 ± 0.67
GGCCAGCAAUAUUACGGACC | -3.07 ± 0.53 | -0.7 ± 0.69

Following part

| Sequence | self-splicing fitness (ln) (30 °C) | self-splicing fitness (ln) (37 °C) |
| --- | --- | --- |
| CCUGAGCAAUAUUACGUGGC | – | -3.66 ± 0.52 |
| CUUCAGCAAUAUUACGGCCU | -3.51 ± 0.6 | – |
| GCUUAGCAAUAUUACGGGCC | -3.36 ± 0.64 | – |
| UGCUAGCAAUAUUACGCAAA | -3.67 ± 0.6 | – |
| CUGUAGCAAUAUUACGAGCA | -3.13 ± 0.54 | – |
| ACUUAGCAAUAUUACGCCGC | – | -1.79 ± 0.53 |
| GGUGAGCAAUAUUACGCGCC | -2.97 ± 0.77 | -0.795 ± 0.53 |
| CCGGAGCAAUAUUACGAGAG | -2.13 ± 0.22 | -2.33 ± 0.22 |
| UAGUAGCAAUAUUACGUAUC | -4.73 ± 1 | -2.76 ± 1.1 |
| CGACAGCAAUAUUACGUAAC | -4.37 ± 0.23 | -2.03 ± 0.31 |
| GAGCAGCAAUAUUACGAUAC | -1.61 ± 0.12 | -1.45 ± 0.15 |
| UUGGAGCAAUAUUACGGAAU | -2.98 ± 0.54 | -4.04 ± 0.72 |
| UACCAGCAAUAUUACGCCUC | -2.32 ± 0.19 | -0.554 ± 0.18 |
| UCUGAGCAAUAUUACGAUCC | -3.91 ± 0.72 | -1.28 ± 0.57 |
| CGGGAGCAAUAUUACGCGUU | – | -1.4 ± 0.53 |
| CUGGAGCAAUAUUACGCCUC | -2.41 ± 0.66 | – |
| CGAUAGCAAUAUUACGCUAG | -1.18 ± 0.1 | -1.52 ± 0.19 |
| GAUUAGCAAUAUUACGCCGA | – | -0.323 ± 0.62 |
| AGAGAGCAAUAUUACGGGUG | – | -2.54 ± 0.54 |
| UUUUAGCAAUAUUACGAAUC | -2.48 ± 0.63 | – |
| GGGGAGCAAUAUUACGCAAU | -2.37 ± 0.56 | – |
| AACCAGCAAUAUUACGAUUC | -1.63 ± 0.071 | -0.153 ± 0.084 |
| GUUUAGCAAUAUUACGAACC | -1.55 ± 1.2 | – |
| UUUCAGCAAUAUUACGCUGA | -3.32 ± 0.47 | -2.24 ± 0.42 |

| Sequence | self-splicing fitness (ln) (30 °C) | self-splicing fitness (ln) (37 °C) |
| --- | --- | --- |
| UGAGAGCAAUAUUACGAGCC | – | -0.914 ± 0.63 |
| AUUCAGCAAUAUUACGGGGU | -3.78 ± 0.39 | -2.85 ± 0.26 |
| CGGAAGCAAUAUUACGCGAC | – | -3.18 ± 0.74 |
| ACGCAGCAAUAUUACGUUAA | -3.4 ± 0.31 | -2.88 ± 0.24 |
| CGAGAGCAAUAUUACGCAGC | -3.17 ± 0.77 | – |
| CCUGAGCAAUAUUACGAUAC | -2.85 ± 0.54 | -1.95 ± 0.51 |
| CACCAGCAAUAUUACGCGGG | -3.44 ± 0.16 | -2.4 ± 0.15 |
| UCCCAGCAAUAUUACGCCAC | -2.29 ± 0.51 | -0.194 ± 0.53 |
| AAUGAGCAAUAUUACGCUGC | -4.31 ± 0.59 | – |
| CCGAAGCAAUAUUACGACUC | – | -3.61 ± 0.52 |
| UGCGAGCAAUAUUACGUUUC | -4.5 ± 0.59 | -2.62 ± 0.36 |
| CCAGAGCAAUAUUACGCACA | -3.85 ± 0.74 | -0.693 ± 1.4 |
| GGCCAGCAAUAUUACGCUGG | -3.98 ± 0.27 | -2.27 ± 0.24 |
| ACUAAGCAAUAUUACGGUUC | -3.92 ± 0.2 | -1.42 ± 0.13 |
| AAGCAGCAAUAUUACGCAUC | – | -3.65 ± 0.51 |
| CAGAAGCAAUAUUACGAAUC | -3.59 ± 0.6 | – |
| UAGAAGCAAUAUUACGGAAC | -1.25 ± 0.34 | -2.51 ± 0.62 |
| CCUCAGCAAUAUUACGUCGC | -3.88 ± 0.52 | – |
| GACGAGCAAUAUUACGCCAU | – | -2.19 ± 0.55 |
| GAUUAGCAAUAUUACGCAAC | -3.22 ± 0.26 | -1.89 ± 0.19 |
| UAAGAGCAAUAUUACGGGCG | -2.73 ± 0.16 | -2.29 ± 0.19 |
| CCGGAGCAAUAUUACGCAAU | – | -2.27 ± 0.56 |
| CGGCAGCAAUAUUACGAAGC | -3.28 ± 0.55 | -2.39 ± 0.77 |
| UAGUAGCAAUAUUACGAUAG | – | -1.9 ± 0.54 |

| Sequence | self-splicing fitness (ln) (30 °C) | self-splicing fitness (ln) (37 °C) |
| --- | --- | --- |
| CGUGAGCAAUAUUACGACAA | -4.31 ± 0.51 | – |
| CGUAAGCAAUAUUACGCUAA | -2.9 ± 0.54 | -3.71 ± 0.73 |
| GGGGAGCAAUAUUACGACGG | – | -1.51 ± 0.53 |
| GGGGAGCAAUAUUACGAGGA | – | -3 ± 1.1 |
| CGAGAGCAAUAUUACGGAGA | – | -3.07 ± 1 |
| GCGUAGCAAUAUUACGCCAC | -2.09 ± 1.4 | – |
| AGUGAGCAAUAUUACGCUAG | -1.67 ± 0.91 | -1.77 ± 0.67 |
| UUACAGCAAUAUUACGACAC | – | -1.67 ± 0.55 |
| CCAGAGCAAUAUUACGAUCA | -4.41 ± 0.52 | – |
| GUUGAGCAAUAUUACGUAUA | – | -4.33 ± 0.51 |
| AACCAGCAAUAUUACGAAUG | -2.22 ± 0.089 | -1.89 ± 0.083 |
| CCAGAGCAAUAUUACGCCUG | -2.44 ± 0.57 | – |
| GGUGAGCAAUAUUACGGGCG | -1.39 ± 0.14 | -0.473 ± 0.14 |
| CGGAAGCAAUAUUACGCAAU | -3 ± 0.26 | -2.69 ± 0.26 |
| AGCGAGCAAUAUUACGGAAA | – | -2.74 ± 1.1 |
| GUUGAGCAAUAUUACGGAAC | – | -0.44 ± 0.71 |
| UCUUAGCAAUAUUACGCUUU | -3.89 ± 0.51 | – |
| CCCGAGCAAUAUUACGAAGA | – | -3.43 ± 1 |
| GGAUAGCAAUAUUACGGGAG | -5.02 ± 0.59 | – |
| CACGAGCAAUAUUACGUAAG | -3.62 ± 0.14 | -1.82 ± 0.11 |
| GGUUAGCAAUAUUACGUCAG | – | -2.86 ± 0.53 |
| CCCUAGCAAUAUUACGCAGC | -3 ± 0.17 | -3.24 ± 0.35 |
